Source: patent US20260258115A1
No constants are given. Whether binding was seen depends on the method and setting.

Assays:
[1] = molecular target: RSV postfusion F (postF), subtype B (respiratory syncytial virus subtype B); test: BLI
[2] = molecular target: RSV postfusion F (postF), subtype B (respiratory syncytial virus, subtype B); test: BLI, IgG

Row | Binder | binding [1] | binding [2]
1 | ADI-24829 (antibody, V domains shown) VH: EVQLLESGGGLVKPGGSLRLSCAASGFTFSSYSMNWVRQAPGKGLEWVSSISSSSSYIYYADSVKGRFTISRDNAKNSLYLQMNSLRAEDTAVYYCARGFHYYGSGSHDAFDIWGQGTMVTVSS VL: QPVLTQPPSVSGAPGQRVTISCTGSSSNIGAGYDVHWYQQLPGTAPKLLIYGNSNRPSGVPDRFSGSKSGTSASLAITGLQAEDEADYYCQSYDSSLSGVFGGGTKLTVL | no binding | 
2 | ADI-24838 (antibody, V domains shown) VH: EVQLLESGGGLVKPGGSLRLSCAASGFTFSSYSMNWVRQAPGKGLEWVSSISSSSSYIYYADSVKGRFTISRDNAKNSLYLQMNSLRAEDTAVYYCARQGVGTVTTWNYYYYYMDVWGKGTTVTVSS VL: QSVVTQPPSVSGAPGQRVTISCTGSSSNIGAGYDVHWYQQLPGTAPKLLIYGNSNRPSGVPDRFSGSKSGTSASLAITGLQAEDEADYYCQSYDSSLSWVFGGGTKLTVL | no binding | 
3 | ADI-24854 (antibody, V domains shown) VH: EVQLVESGGGLVKPGGSLRLSCAASGFTFSSYSMNWVRQAPGKGLEWVSSISSSSSYIYYADSVKGRFTISRDNAKNSLYLQMNSLRAEDTAVYYCARDRRFGELFYFDYWGQGTLVTVSS VL: QSVLTQPPSVSGAPGQRVTISCTGSSSNIGAGYDVHWYQQLPGTAPKLLIYGNSNRPSGVPDRFSGSKSGTSASLAITGLQAEDEADYYCQSYDSSLSGNWVFGGGTKLTVL | no binding | 
4 | ADI-25505 (antibody, V domains shown) VH: EVQLVESGGGLVKPGGSLRLSCAASGFTFSSYSMNWVRQAPGKGLEWVSSISSSSSYIYYADSVKGRFTISRDNAKNSLYLQMNSLRAEDTAVYYCARVVGYSGSYLDYWGQGTLVTVSS VL: QSVVTQPPSVSGAPGQRVTISCTGSSSNIGAGYDVHWYQQLPGTAPKLLIYGNSNRPSGVPDRFSGSKSGTSASLAITGLQAEDEADYYCQSYDSSLSGVVFGGGTKLTVL | no binding | 
5 | ADI-19489 (antibody, V domains shown) VH: QITLKESGPALVKPTQTLTLTCTFSGFSLSTSGMCVSWIRQPPGKALEWLARIDWDDDKYYSTSLKTRLTISKDTSKNQVVLTMTNMDPVDTATYYCARMCWGNYVPIDAFDIWGQGTMVTVSS VL: DIQLTQSPSSLSASVGDRVTITCRASQGIRNDLGWYQQKPGKAPKRLIYAASSLQSGVPSRFSGSGSGTEFTLTISSLQPEDFATYYCLQHNSYPPTFGQGTKVDIK | no binding | 
6 | ADI-22766 (antibody, V domains shown) VH: EVQLVESGGGLVQPGRSLRLSCAASGFTFDDYAMHWVRQAPGKGLEWVSGISWNSGSIGYADSVKGRFTISRDNAKNSLYLQMNSLRAEDTALYYCAKDGRFSLSHTYYFDYWGQGTLVTVSS VL: QPVLTQPPSASGSPGQSVTISCTGTSSDVGGYNYVSWYQQHPGKAPKLMIYEVSKRPSGVPNRFSGSKSGNTASLTVSGLQAEDEADYYCSSYAGSNNLYVFGTGTKVTVL | no binding | 
7 | ADI-22773 (antibody, V domains shown) VH: QVQLVQSGAEVKKPGASVKVSCKASGYTFTSYGISWVRQAPGQGLEWMGWISAYNGNTNYAQKLQGRVTMTTDTSTSTAYMELRSLRSDDTAVYYCARESALSRDGYNYGDVDYWGQGTLVTVSS VL: ETTLTQSPLSLPVTLGQPASISCRSSQSLVYSDGNTYLNWFQQRPGQSPRRLIYKVSNRDSGVPDRFSGSGSGTDFTLKISRVEAEDVGVYYCMQGTHWPPTFGQGTKLEIK | no binding | 
8 | ADI-14390 (antibody, V domains shown) VH: QVQLVESGPGLVKPSETLSLTCAVSGYSISSGYYWGWIRQPPGKGLEWIGNIYHSGSTYYNPSLKSRVTISVDTSKNQFSLKLSSVTAADTAVYYCARATLRFTLVREVVVTACDAFDIWGQGTTVTVSS VL: QSALTQPASVSGSPGQSITISCTGTSSDVGSYNLVSWYQQHPGKVPKLVIYEVNKRPSGVSNRFSGSKSGNTASLTISGLQAEDEADYYCCSYAGSSTFVVFGGGTKLTVL | no binding | 
9 | ADI-20980 (antibody, V domains shown) VH: QVQLQESGPGLVKPSQTLSLTCSVSGGSVSSGDYYWTWIRQPAGKGLEWIGRIYNSGGTDYSPSLKSRVTISVDTSKNQFSLKLSSVTAADTAVYYCARGRGYYESPWGQGTLVTVSS VL: EIVLTQSPATLSLSPGERATLSCRASQSVGIYIGWYQQKPGQAPRLLMYDASNRATGIPDRFSGSGSGTDFSLTISSLEPEDFAVYYCQLRSKWLTFGPGTKVEIK |  | no binding
10 | ADI-20984 (antibody, V domains shown) VH: EVQLLETGAEVKKPGASVKVSCHVSGYGLTDLSMHWVRQAPGKRLQWMGSFDPQYGETIDTQNFQGRVTMTVDTSTATLYMQLSGLRSEDTAMYYCATPQSTGALDNWGQGTLVTVSS VL: DIRVTQSPSSLSASVGDRVTITCRASQSISSYLSWYQQKPGKAPRLVIFAASNLQSGVPSRFSGTGSSRFSDSGSWTDFTLTISSLQPEDFAIYYCQQTYITPFTFGQGTKVDIK |  | no binding
11 | ADI-20987 (antibody, V domains shown) VH: QVQLVQSGGGVVHPGRSLRLSCAASGFSFSDYGMHWVRQAPGKGLEWVAVIWYDGINKYYADSVKGRFAISRDNSKNTLYLQMNSLRAGDTAVYYCARGGIAAAQRYFDYWGQGTLVTVSS VL: ETTLTQSPGTLSLSPGERATLSCRASQTVSSSNLAWYQQKPGQAPRLLIYGASSRATGIPDRFSGSGSGTDFTLTISRLEPEDFAVYYCQQSGTSFGQGTKVDIK |  | no binding
12 | ADI-21005 (antibody, V domains shown) VH: EVQLVESGGAVVQPGGSLRLSCVASGLAFDEYTMHWVRQSSAKGLEWISLISWNGGITYYADSVKGRFTISRDNSKNSLYLQMNSLRTEDTATYFCARLGYGSGSDYGDDYWGQGTLVTVSS VL: ETTLTQSPGTLSLSPGERATLSCRASQSVSNNYLAWYQQKPGQAPRLLIHGASTRVTGIPARFSGSGSGTDFTLTISRLEPEDFAVYYCHQYHSSPRTFGQGTKVDIK |  | no binding
13 | ADI-21013 (antibody, V domains shown) VH: QVQLQESGPGVVKPSETLSLTCTVSGGSISNTHSYWGWIRQSPGKGLEWIGSIYYTGSTYYNPSFRSRVTLSVDTSKNQFSLKLSSVTAADTAVYYCAAPDYFVLTDYKSTFDYWGRGALVTVSS VL: DIVMTQSPGTLSLSPGGRATLSCRASQSVGSSSLAWYQQKPGQAPRLLIYGASSRAAGIPDRFSGSGSGTDFTLTINRLEPEDFAMYYCQQYGSSPLTFGGGTKVEIK |  | no binding
14 | ADI-21015 (antibody, V domains shown) VH: QVQLVQSGAEVKKPGASVRVSCKVPGNTLSDLSMHWVRHTPGEGLEWMGSFDPEYGETIPAQRFQGRVTMTEDTSTDTAYMELTSLRFEDTAVYYCAAPHASGALQHWGQGTLVTVSS VL: DIVMTQSPSSLSASVGDRVTITCRASQIISAYLNWYQQKAGKAPKLLIYAASSLQSGVPSRFSGSGSGTDFTLTISSLQPEDFATYYCQQTYITPFTFGQGTKLEIK |  | no binding
15 | ADI-21018 (antibody, V domains shown) VH: EVQLLESGGGLVKPGGSLRLSCAGSGFTLSSYGMNWVRQAPGQGLEWISSISSSSSYINYADSVKGRFTISRDNAQNSLYLQLNSLRAEDTAVYYCARGGLGYDYGLGSYTYADYWGQGTLVTVSS VL: QSVVTQPPSVSGAPGQRVTISCTGSSSNTGAGYDIHWYQQLPGTGPKLLIYGNKNRPSGVPDRFSGSKSGTSASLAITGLQAEDEADYYCQSYDSSLSGWVFGGGTKVTVL |  | no binding
16 | ADI-21028 (antibody, V domains shown) VH: EVQLVESGGALVKPGGSLRLSCVASGFTFSDYYMHWVRQAPGKGLEWVSYISSTSSFTNYADSVKGRFIISRDNAKNSLYLQLNSLRAEDTAVYYCARDESSGWQTRRHFGMDVWGQGTLVTVSS VL: EIVMTQSPSTLSASVGDRVTITCRASQSLNTWLAWYQHKPGKAPKLLISTASSLQSGVPSRFSASGSGTEFTLTISSLQPDDFATYYCQQFRGTFGPGTKVEIK |  | no binding
17 | ADI-21036 (antibody, V domains shown) VH: QVQLVQSGAEVKEPGKSLKISCKGSGNHFGNYWIAWVRQMPGKGLEWMGIIYPGDSDTRYSPSFQDQVTISVDKSINTVYLQWSSLKAADTATYYCAGSKLGNSWYTIYDSWGQGTLVTVSS VL: NFMLTQPASVSGSPGQSITISCAGPSALIGVYNLVSWYQQVPGKAPKLIIYEGSKRPSGVSHRFSGSKSGYTASLTISGLQTEDEADYYCCSYAGSGTSVVFGGGTKVTVL |  | no binding
18 | ADI-21049 (antibody, V domains shown) VH: EVQLVESGGGLVKPGGSLRLSCSASGFAFSSYSMNWVRQAPGKGLEWVSSISASSSYIFYADSVKGRFTISRDNAKNSLYLQMNSLRAEDTAFYYCARALSPGYGDYRDYWGQGTLVTVSS VL: QSVVTQPPSVSGAPGQRVTISCTGSSSNIGAGYDVHWYQQLPGAAPKLLIYGNNNRPSGVPDRFSGSKSGTSASLAITGLQAEDEADFYCQSYDHNLSVVFGGGTKLTVL |  | no binding
